# Source: the supplement of paper PMC4604168 (melanoma cell lines)
# The list shows a part of the results. Repeats are few or missing, and single values can be far off.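 Imaging used 1,536-well plates; nuclei positive for cleaved PARP by antibody were divided by total DNA-stained nuclei to yield the apoptosis fraction. Doses for screening kept most cells viable, and cell lines differ markedly in resting and induced cleaved-PARP levels.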
# Tested on: COLO829
# Experiment: cleaved PARP positive nuclei fraction relative to DMSO control; melanoma cells; higher = more apoptosis
# Conditions: library dose: low library concentration; 72 h
row,Structure (SMILES),cleaved PARP positive nuclei fraction [%]
1,"CCc1ccc(CCOc2ccc(CC3SC(=O)NC3=O)cc2)nc1 (stereo unspecified) [pioglitazone] + CCCCCCCCCCCC1=C(O)C(=O)C=C(O)C1=O [Embelin] (first compound 2 µM, partner dose 1.2 µM)",95.9
2,"CN(C)S(=O)(=O)c1ccc2c(c1)/C(=C/c1cc3c([nH]1)CCCC3)C(=O)N2 + c1cc(-c2cnn3cc(-c4ccc(OCCN5CCCCC5)cc4)cnc23)ccn1 [Dorsomorphin] (first compound 0.4 µM, partner dose 0.4 µM)",117
3,"O=C(Nc1ccccc1)c1cc([N+](=O)[O-])ccc1Cl + O=c1cc(-c2cccc3c2Sc2ccccc2S3)oc(N2CCOCC2)c1 [KU55933] (first compound 2 µM, partner dose 1 µM)",85.6
4,"COc1cc2ncnc(Nc3ccc(Oc4ccccc4)cc3)c2cc1OC + O=C(O)C(=O)Nc1sc2c(c1C(=O)O)CCNC2 [TCS401] (first compound 2 µM, partner dose 1.66667 µM)",83.6
5,"COc1ccc(-c2ccc3c(N4CCOCC4)nc(N4C[C@@H](C)O[C@@H](C)C4)nc3n2)cc1CO + Oc1nc(-c2ccc(C(F)(F)F)cc2)nc2c1CSCC2 [XAV939] (first compound 0.02 µM, partner dose 2 µM)",44.7
6,"CN(NC(=O)CC(=O)NN(C)C(=S)c1ccccc1)C(=S)c1ccccc1 + CCc1ccc(CCOc2ccc(CC3SC(=O)NC3=O)cc2)nc1 [pioglitazone] (first compound 0.006 µM, partner dose 2 µM)",84.5
7,"CCc1ccc(CCOc2ccc(CC3SC(=O)NC3=O)cc2)nc1 (stereo unspecified) [pioglitazone] + Cc1cc([N+](=O)[O-])ccc1NS(=O)(=O)c1cc(Cl)ccc1Cl [FH535] (first compound 2 µM, partner dose 1 µM)",51
8,"CCN(CC)CCCCNc1ncc2cc(-c3cc(OC)cc(OC)c3)c(NC(=O)NC(C)(C)C)nc2n1 + O=c1cc(-c2cccc3c2Sc2ccccc2S3)oc(N2CCOCC2)c1 [KU55933] (first compound 0.1 µM, partner dose 1 µM)",227
9,"COc1ccc(COc2ccc(Cc3cnc(N)nc3N)cc2OC)cc1 + O=C1NC(=O)/C(=C/c2ccc(-c3ccc(F)cc3O)o2)S1 [AS252424] (first compound 1 µM, partner dose 1 µM)",219
10,"Oc1cc(-c2nc(-c3ccccc3)[nH]c2-c2ccncc2)ccc1Cl + Cn1cc(/C=C2\C(=O)Nc3cccnc32)c2ccccc21 [GW441756] (first compound 0.2 µM, partner dose 0.4 µM)",112
11,"NCC(=O)Nc1ccc(-n2nc(C(F)(F)F)cc2-c2ccc3c(ccc4ccccc43)c2)cc1 + Oc1cc(-c2nc(-c3ccccc3)[nH]c2-c2ccncc2)ccc1Cl [L779450] (first compound 1 µM, partner dose 0.2 µM)",31.2
12,"O=S(=O)(c1ccccc1)N(CC(F)(F)F)c1ccc(C(O)(C(F)(F)F)C(F)(F)F)cc1 + CC(C)CCN1c2nc(Nc3cc(F)c(O)c(F)c3)ncc2N(C)C(=O)C1C [BID1870] (first compound 1.4 µM, partner dose 0.2 µM)",137
13,"Cn1cc(/C=C2\C(=O)Nc3cccnc32)c2ccccc21 + CC(C)CCN1c2nc(Nc3cc(F)c(O)c(F)c3)ncc2N(C)C(=O)C1C [BID1870] (first compound 0.4 µM, partner dose 0.2 µM)",79.4
14,"O=C1NC(=O)/C(=C/c2ccc(-c3ccc(F)cc3O)o2)S1 + COc1cc(N2CCC(N3CCN(C)CC3)CC2)ccc1Nc1ncc(Cl)c(Nc2ccccc2S(=O)(=O)C(C)C)n1 [NVP-TAE684] (first compound 1 µM, partner dose 0.08 µM)",129
15,"N#Cc1c(O)c2c(-c3ccc(-c4ccccc4O)cc3)csc2[nH]c1=O + CCN(CC)CCCCNc1ncc2cc(-c3cc(OC)cc(OC)c3)c(NC(=O)NC(C)(C)C)nc2n1 [PD173074] (first compound 2 µM, partner dose 0.1 µM)",61.7
16,"CN(C)S(=O)(=O)c1ccc2c(c1)/C(=C/c1cc3c([nH]1)CCCC3)C(=O)N2 + COc1ccc2c(c1)CCC1C2CCC2(C)C(NCCCCCCN3C(=O)C=CC3=O)CCC12 [U73122] (first compound 0.4 µM, partner dose 0.4 µM)",64.9
17,"Oc1cc(-c2nc(-c3ccccc3)[nH]c2-c2ccncc2)ccc1Cl + c1cc(-c2cnn3cc(-c4ccc(OCCN5CCCCC5)cc4)cnc23)ccn1 [Dorsomorphin] (first compound 0.2 µM, partner dose 0.4 µM)",118
18,"Oc1nc(-c2ccc(C(F)(F)F)cc2)nc2c1CSCC2 + CCCCCCCCCCCC1=C(O)C(=O)C=C(O)C1=O [Embelin] (first compound 2 µM, partner dose 1.2 µM)",97.6

# Single values from the results shown.
# cleaved PARP positive nuclei fraction [%] with CN(NC(=O)CC(=O)NN(C)C(=S)c1ccccc1)C(=S)c1ccccc1 + CCc1ccc(CCOc2ccc(CC3SC(=O)NC3=O)cc2)nc1 [pioglitazone] (first compound 0.006 µM, partner dose 2 µM) reads 84.5
# cleaved PARP positive nuclei fraction [%] with O=S(=O)(c1ccccc1)N(CC(F)(F)F)c1ccc(C(O)(C(F)(F)F)C(F)(F)F)cc1 + CC(C)CCN1c2nc(Nc3cc(F)c(O)c(F)c3)ncc2N(C)C(=O)C1C [BID1870] (first compound 1.4 µM, partner dose 0.2 µM) reads 137

# (next part)

row,Structure (SMILES),cleaved PARP positive nuclei fraction [%]
1,"CN(C)S(=O)(=O)c1ccc2c(c1)/C(=C/c1cc3c([nH]1)CCCC3)C(=O)N2 + CCN(CC)CCCCNc1ncc2cc(-c3cc(OC)cc(OC)c3)c(NC(=O)NC(C)(C)C)nc2n1 [PD173074] (first compound 0.4 µM, partner dose 0.1 µM)",67.7
2,"COc1ccc(-c2ccc3c(N4CCOCC4)nc(N4C[C@@H](C)O[C@@H](C)C4)nc3n2)cc1CO + O=c1cc(-c2cccc3c2Sc2ccccc2S3)oc(N2CCOCC2)c1 [KU55933] (first compound 0.02 µM, partner dose 1 µM)",128
3,"NCC(=O)Nc1ccc(-n2nc(C(F)(F)F)cc2-c2ccc3c(ccc4ccccc43)c2)cc1 + Cn1cc(/C=C2\C(=O)Nc3cccnc32)c2ccccc21 [GW441756] (first compound 1 µM, partner dose 0.4 µM)",137
4,"COc1ccc(-c2ccc3c(N4CCOCC4)nc(N4C[C@@H](C)O[C@@H](C)C4)nc3n2)cc1CO + CC(C)CCN1c2nc(Nc3cc(F)c(O)c(F)c3)ncc2N(C)C(=O)C1C [BID1870] (first compound 0.02 µM, partner dose 0.2 µM)",101
5,"CCN(CC)CCCCNc1ncc2cc(-c3cc(OC)cc(OC)c3)c(NC(=O)NC(C)(C)C)nc2n1 + Cc1cc([N+](=O)[O-])ccc1NS(=O)(=O)c1cc(Cl)ccc1Cl [FH535] (first compound 0.1 µM, partner dose 1 µM)",104
6,"COc1cc2c(Oc3ccc4[nH]c(C)cc4c3F)ncnc2cc1OCCCN1CCCC1 [cediranib] + CCN(CC)CCCCNc1ncc2cc(-c3cc(OC)cc(OC)c3)c(NC(=O)NC(C)(C)C)nc2n1 [PD173074] (first compound 0.4 µM, partner dose 0.1 µM)",127
7,"O=C(O)c1ccc(-c2c[nH]c3ncc(-c4ccccc4)cc23)cc1C1CCCC1 + Cn1cc(/C=C2\C(=O)Nc3cccnc32)c2ccccc21 [GW441756] (first compound 0.16 µM, partner dose 0.4 µM)",60.7
8,"O=C(O)c1ccc(-c2c[nH]c3ncc(-c4ccccc4)cc23)cc1C1CCCC1 + Oc1nc(-c2ccc(C(F)(F)F)cc2)nc2c1CSCC2 [XAV939] (first compound 0.16 µM, partner dose 2 µM)",79
9,"N#Cc1c(O)c2c(-c3ccc(-c4ccccc4O)cc3)csc2[nH]c1=O + COc1cc(N2CCC(N3CCN(C)CC3)CC2)ccc1Nc1ncc(Cl)c(Nc2ccccc2S(=O)(=O)C(C)C)n1 [NVP-TAE684] (first compound 2 µM, partner dose 0.08 µM)",122
10,"Oc1cc(-c2nc(-c3ccccc3)[nH]c2-c2ccncc2)ccc1Cl + COc1cc(N2CCC(N3CCN(C)CC3)CC2)ccc1Nc1ncc(Cl)c(Nc2ccccc2S(=O)(=O)C(C)C)n1 [NVP-TAE684] (first compound 0.2 µM, partner dose 0.08 µM)",113
11,"COc1ccc2c(c1)CCC1C2CCC2(C)C(NCCCCCCN3C(=O)C=CC3=O)CCC12 (stereo unspecified) + Oc1cc(-c2nc(-c3ccccc3)[nH]c2-c2ccncc2)ccc1Cl [L779450] (first compound 0.4 µM, partner dose 0.2 µM)",40.5
12,"COc1cc2c(Oc3ccc4[nH]c(C)cc4c3F)ncnc2cc1OCCCN1CCCC1 [cediranib] + Oc1cc(-c2nc(-c3ccccc3)[nH]c2-c2ccncc2)ccc1Cl [L779450] (first compound 0.4 µM, partner dose 0.2 µM)",70.6
13,"O=S(=O)(c1ccccc1)N(CC(F)(F)F)c1ccc(C(O)(C(F)(F)F)C(F)(F)F)cc1 + Cn1cc(/C=C2\C(=O)Nc3cccnc32)c2ccccc21 [GW441756] (first compound 1.4 µM, partner dose 0.4 µM)",109
14,"N#Cc1c(O)c2c(-c3ccc(-c4ccccc4O)cc3)csc2[nH]c1=O + CC(C)CCN1c2nc(Nc3cc(F)c(O)c(F)c3)ncc2N(C)C(=O)C1C [BID1870] (first compound 2 µM, partner dose 0.2 µM)",45.1
15,"O=S(=O)(c1ccccc1)N(CC(F)(F)F)c1ccc(C(O)(C(F)(F)F)C(F)(F)F)cc1 + Oc1cc(-c2nc(-c3ccccc3)[nH]c2-c2ccncc2)ccc1Cl [L779450] (first compound 1.4 µM, partner dose 0.2 µM)",144
16,"CN(NC(=O)CC(=O)NN(C)C(=S)c1ccccc1)C(=S)c1ccccc1 + COC(=O)c1sccc1S(=O)(=O)Nc1ccc(Nc2ccccc2)cc1OC [GSK0660] (first compound 0.006 µM, partner dose 1 µM)",221
17,"COc1cc2c(Oc3ccc4[nH]c(C)cc4c3F)ncnc2cc1OCCCN1CCCC1 [cediranib] + O=C(O)C(=O)Nc1sc2c(c1C(=O)O)CCNC2 [TCS401] (first compound 0.4 µM, partner dose 1.66667 µM)",125
18,"COC(=O)c1sccc1S(=O)(=O)Nc1ccc(Nc2ccccc2)cc1OC + CCCCCCCCCCCC1=C(O)C(=O)C=C(O)C1=O [Embelin] (first compound 1 µM, partner dose 1.2 µM)",83.6
